# ± gives the standard deviation of the averaged measurements. Only a part is listed here, and it is no random draw.
# Sequences of proteins named here, by UniProt entry; tags and fusion partners are left off. A change or cut given only in a name is not applied to a line headed by its entry.
# UniProt Q9UBT6: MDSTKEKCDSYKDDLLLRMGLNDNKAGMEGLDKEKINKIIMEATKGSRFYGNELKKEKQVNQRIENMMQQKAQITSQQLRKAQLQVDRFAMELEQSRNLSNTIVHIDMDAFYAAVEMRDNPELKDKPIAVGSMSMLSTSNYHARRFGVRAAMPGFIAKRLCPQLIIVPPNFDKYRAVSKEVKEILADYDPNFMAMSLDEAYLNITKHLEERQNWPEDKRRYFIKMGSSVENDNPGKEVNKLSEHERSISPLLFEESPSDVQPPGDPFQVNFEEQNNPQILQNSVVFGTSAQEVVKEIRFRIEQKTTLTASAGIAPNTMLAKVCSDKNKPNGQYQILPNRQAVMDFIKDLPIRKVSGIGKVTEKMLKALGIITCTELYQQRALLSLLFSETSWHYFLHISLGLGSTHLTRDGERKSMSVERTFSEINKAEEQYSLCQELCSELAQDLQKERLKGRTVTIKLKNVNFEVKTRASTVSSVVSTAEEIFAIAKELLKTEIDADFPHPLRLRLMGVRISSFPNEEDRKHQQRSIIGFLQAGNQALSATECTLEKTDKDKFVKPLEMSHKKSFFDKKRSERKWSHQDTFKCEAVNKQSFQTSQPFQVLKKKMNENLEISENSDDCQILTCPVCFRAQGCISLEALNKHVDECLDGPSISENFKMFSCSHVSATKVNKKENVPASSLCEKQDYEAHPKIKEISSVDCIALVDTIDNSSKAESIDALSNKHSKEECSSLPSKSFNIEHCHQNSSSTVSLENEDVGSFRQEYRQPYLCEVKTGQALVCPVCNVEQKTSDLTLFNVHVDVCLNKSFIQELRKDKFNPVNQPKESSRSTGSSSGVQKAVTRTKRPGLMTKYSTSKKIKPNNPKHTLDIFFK
# UniProt Q9UL63, whole entry: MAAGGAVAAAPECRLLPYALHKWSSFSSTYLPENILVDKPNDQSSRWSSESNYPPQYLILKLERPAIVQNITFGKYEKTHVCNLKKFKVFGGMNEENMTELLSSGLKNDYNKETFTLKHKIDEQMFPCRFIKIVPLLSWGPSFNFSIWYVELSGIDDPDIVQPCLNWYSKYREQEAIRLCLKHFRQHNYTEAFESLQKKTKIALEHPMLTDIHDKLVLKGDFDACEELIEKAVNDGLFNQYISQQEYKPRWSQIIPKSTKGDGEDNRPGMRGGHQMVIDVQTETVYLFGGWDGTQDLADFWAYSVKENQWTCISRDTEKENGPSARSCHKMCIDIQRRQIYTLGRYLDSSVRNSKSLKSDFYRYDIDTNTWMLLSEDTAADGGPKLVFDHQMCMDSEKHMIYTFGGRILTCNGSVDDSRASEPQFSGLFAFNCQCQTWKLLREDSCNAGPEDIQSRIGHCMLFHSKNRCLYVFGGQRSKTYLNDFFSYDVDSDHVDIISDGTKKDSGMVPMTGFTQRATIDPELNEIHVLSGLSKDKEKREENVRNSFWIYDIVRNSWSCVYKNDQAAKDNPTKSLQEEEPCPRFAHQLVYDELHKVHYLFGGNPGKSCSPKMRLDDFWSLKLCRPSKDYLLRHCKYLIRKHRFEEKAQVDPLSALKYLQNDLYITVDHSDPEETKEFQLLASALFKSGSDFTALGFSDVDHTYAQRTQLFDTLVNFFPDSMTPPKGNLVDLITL
# UniProt Q9UQC2, whole entry: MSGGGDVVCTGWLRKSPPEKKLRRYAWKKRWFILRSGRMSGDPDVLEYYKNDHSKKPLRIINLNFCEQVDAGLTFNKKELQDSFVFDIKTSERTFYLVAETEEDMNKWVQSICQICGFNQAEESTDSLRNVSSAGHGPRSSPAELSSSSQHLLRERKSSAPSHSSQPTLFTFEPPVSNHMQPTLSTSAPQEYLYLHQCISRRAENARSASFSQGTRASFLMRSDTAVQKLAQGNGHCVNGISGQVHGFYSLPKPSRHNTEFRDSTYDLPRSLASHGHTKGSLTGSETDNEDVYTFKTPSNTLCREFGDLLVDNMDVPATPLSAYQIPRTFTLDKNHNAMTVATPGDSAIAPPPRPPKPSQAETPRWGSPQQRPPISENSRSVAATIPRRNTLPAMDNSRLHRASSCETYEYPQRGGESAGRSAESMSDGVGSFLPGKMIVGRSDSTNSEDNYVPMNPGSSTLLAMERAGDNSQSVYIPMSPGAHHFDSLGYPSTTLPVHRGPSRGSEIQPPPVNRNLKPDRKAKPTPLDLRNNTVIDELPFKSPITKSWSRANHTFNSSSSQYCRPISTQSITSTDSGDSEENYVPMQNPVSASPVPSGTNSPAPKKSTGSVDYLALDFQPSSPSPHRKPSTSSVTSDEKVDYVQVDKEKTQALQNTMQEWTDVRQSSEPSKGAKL
# UniProt Q9UPZ3: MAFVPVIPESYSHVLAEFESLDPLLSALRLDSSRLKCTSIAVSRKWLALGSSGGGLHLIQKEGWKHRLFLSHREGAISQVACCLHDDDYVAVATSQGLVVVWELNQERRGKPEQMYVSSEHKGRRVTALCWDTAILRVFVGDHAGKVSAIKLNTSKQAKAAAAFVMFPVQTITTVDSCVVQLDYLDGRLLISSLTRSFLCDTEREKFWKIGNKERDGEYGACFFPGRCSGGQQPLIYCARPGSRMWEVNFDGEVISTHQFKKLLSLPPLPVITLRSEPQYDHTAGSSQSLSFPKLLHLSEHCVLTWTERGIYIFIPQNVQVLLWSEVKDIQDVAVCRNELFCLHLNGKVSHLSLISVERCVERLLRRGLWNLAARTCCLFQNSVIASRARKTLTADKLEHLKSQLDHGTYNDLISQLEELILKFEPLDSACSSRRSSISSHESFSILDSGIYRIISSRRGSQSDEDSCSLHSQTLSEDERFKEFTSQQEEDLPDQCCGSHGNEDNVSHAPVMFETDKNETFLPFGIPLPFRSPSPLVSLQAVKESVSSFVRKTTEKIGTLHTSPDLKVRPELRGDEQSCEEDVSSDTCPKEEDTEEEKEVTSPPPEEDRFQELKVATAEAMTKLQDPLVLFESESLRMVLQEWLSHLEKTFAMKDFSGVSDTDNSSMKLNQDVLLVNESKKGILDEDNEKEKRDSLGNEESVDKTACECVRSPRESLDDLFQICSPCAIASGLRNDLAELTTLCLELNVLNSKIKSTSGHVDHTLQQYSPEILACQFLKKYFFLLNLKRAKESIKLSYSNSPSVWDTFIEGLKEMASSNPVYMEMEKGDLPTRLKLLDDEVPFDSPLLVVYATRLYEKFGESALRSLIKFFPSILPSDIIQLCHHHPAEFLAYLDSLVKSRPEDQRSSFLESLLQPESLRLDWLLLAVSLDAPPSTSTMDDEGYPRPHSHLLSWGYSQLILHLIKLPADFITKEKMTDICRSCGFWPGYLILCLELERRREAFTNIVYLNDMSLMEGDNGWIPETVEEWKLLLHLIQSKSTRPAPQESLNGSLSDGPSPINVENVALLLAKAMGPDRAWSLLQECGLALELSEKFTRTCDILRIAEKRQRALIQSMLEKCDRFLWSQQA
# UniProt Q9P287, whole entry: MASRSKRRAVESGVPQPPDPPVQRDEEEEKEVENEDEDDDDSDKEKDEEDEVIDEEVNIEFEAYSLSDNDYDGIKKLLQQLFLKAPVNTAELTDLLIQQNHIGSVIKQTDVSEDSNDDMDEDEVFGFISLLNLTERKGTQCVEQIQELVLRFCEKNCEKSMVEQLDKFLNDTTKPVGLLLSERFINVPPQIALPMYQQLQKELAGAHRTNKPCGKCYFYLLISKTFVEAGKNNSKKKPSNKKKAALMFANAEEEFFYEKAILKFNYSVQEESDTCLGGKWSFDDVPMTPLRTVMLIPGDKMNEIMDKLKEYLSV
# UniProt Q9UGR2: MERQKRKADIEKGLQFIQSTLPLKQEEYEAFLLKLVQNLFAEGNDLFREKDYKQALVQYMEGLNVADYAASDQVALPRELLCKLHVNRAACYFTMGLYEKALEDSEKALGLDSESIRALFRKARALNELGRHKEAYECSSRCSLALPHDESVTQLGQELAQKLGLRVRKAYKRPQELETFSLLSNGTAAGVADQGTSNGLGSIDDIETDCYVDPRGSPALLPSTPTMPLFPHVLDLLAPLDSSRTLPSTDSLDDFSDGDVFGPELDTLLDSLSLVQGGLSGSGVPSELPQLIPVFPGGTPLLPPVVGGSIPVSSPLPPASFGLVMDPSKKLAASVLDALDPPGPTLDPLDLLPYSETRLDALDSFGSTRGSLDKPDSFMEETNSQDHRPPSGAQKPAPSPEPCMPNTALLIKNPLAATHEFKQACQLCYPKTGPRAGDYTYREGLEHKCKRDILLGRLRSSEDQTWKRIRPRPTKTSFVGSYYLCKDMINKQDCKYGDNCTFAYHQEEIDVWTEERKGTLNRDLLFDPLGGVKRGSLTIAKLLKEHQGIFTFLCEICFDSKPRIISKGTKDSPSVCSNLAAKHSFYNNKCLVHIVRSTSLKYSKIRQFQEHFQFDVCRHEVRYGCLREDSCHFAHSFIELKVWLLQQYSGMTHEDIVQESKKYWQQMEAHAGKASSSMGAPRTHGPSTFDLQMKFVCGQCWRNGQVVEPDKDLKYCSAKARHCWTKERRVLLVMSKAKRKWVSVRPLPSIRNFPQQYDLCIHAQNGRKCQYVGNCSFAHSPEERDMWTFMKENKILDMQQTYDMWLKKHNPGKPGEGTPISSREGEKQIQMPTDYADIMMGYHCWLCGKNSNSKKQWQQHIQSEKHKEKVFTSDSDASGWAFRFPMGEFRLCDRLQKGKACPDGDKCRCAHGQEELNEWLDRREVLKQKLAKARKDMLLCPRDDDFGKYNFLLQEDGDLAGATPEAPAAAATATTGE
# UniProt Q9UJK0: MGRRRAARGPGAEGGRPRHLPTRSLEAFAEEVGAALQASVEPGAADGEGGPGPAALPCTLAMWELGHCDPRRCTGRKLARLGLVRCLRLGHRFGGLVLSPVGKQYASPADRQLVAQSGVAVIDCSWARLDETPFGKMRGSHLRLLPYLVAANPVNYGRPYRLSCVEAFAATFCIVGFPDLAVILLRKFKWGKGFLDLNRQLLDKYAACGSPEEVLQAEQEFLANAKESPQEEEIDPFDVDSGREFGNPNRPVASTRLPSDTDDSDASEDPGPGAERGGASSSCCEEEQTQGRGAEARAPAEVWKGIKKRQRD
# UniProt Q9UNP9: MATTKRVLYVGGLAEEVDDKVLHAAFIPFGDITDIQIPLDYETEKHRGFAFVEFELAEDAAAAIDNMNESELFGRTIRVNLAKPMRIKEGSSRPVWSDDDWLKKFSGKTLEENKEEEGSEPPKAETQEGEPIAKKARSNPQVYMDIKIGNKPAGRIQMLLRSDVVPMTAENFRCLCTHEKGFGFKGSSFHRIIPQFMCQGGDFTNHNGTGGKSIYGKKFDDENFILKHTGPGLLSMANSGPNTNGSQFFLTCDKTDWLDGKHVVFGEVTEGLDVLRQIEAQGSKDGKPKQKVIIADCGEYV
# UniProt Q9UJ83: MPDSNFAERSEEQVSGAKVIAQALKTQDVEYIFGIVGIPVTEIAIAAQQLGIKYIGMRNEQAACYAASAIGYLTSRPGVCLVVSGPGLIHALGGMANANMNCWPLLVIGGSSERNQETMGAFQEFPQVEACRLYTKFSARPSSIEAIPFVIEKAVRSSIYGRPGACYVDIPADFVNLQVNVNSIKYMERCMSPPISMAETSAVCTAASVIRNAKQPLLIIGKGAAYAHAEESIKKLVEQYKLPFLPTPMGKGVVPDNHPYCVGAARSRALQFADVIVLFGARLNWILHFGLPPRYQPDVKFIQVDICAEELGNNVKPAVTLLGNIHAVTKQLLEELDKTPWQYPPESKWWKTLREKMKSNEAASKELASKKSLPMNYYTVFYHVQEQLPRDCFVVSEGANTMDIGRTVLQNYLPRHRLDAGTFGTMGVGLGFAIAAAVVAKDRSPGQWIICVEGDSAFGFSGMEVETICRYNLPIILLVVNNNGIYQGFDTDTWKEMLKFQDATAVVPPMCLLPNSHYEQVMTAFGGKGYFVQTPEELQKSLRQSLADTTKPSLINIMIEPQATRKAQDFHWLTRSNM
# UniProt Q9UGP4: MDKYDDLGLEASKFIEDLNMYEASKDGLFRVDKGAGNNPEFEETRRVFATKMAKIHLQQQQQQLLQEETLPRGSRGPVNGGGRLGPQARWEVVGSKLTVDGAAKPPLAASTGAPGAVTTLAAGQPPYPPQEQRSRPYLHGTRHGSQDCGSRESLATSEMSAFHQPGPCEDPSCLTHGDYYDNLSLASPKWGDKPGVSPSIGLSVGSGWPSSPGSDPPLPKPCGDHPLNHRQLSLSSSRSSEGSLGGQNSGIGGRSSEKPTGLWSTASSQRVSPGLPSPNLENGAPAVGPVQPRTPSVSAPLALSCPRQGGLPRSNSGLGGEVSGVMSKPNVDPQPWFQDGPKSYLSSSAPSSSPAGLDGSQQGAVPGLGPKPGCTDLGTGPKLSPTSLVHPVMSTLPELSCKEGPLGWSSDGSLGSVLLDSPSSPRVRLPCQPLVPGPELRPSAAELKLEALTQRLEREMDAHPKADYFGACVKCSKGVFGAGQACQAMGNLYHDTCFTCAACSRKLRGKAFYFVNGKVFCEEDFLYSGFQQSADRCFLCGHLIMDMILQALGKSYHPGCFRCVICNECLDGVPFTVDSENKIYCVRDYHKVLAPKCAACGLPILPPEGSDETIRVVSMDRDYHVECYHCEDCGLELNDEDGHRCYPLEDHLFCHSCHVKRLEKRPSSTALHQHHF
# Compound: Nc1ncnc2c1ncn2[C@@H]1O[C@H](COP(=O)(O)OP(=O)(O)OP(=O)(O)O)[C@@H](O)[C@H]1O [adenosine triphosphate]
# Assay: NP40-soluble protein abundance relative to vehicle (solubility fold change) (ratio); higher = more soluble protein in presence of ATP
# Conditions: concentration: 1mM
# Outline: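 Across three independent experiments, values are fold changes against the detergent-processed vehicle for each replicate, based on vsn-normalised intensities. The samples were Jurkat crude lysate treated with eight concentrations (0.1 to 10 mM) for 10 min at room temperature and then 3 min at 37 °C. Lysate was solubilised with 0.8% NP40 and benzonase, ultracentrifuged, and the supernatant analysed by TMT-labelled LC-MS/MS.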
row,Target,NP40-soluble protein abundance
1,UniProt Q9UJV9 and related entries,1.41 ± 0.093
2,UniProt Q9UBC3 and related entries,1.265 ± 0.011
3,POLK (UniProt Q9UBT6),0.964 ± 0.048
4,UniProt Q9UEE5,1.19 ± 0.15
5,CYB5R1 (UniProt Q9UHQ9),1 ± 0.11
6,MKLN1 (UniProt Q9UL63),0.992 ± 0.06
7,UniProt Q9UQC2 and related entries,0.932 ± 0.014
8,UniProt Q9UPZ3 and related entries,1.02 ± 0.022
9,UniProt Q9UQ13 and related entries,1.01 ± 0.05
10,UniProt Q9UIG0 and related entries,1.02 ± 0.016
11,UniProt Q9P287 and related entries,0.952 ± 0.028
12,SEL1L (UniProt Q9UBV2),0.939 ± 0.019
13,UniProt Q9UNS1 and related entries,0.979 ± 0.041
14,UniProt Q9UM21,0.991 ± 0.11
15,UniProt Q9UGR2 and related entries,1.03 ± 0.019
16,USP24 (UniProt Q9UPU5),1.01 ± 0.063
17,UniProt Q9UNZ2 and related entries,0.946 ± 0.043
18,UniProt Q9UJK0,0.954 ± 0.053
19,AK3 (UniProt Q9UIJ7),0.9201 ± 0.0046
20,PPIE (UniProt Q9UNP9),0.995 ± 0.035
21,UniProt Q9P2N6-3,1.11 ± 0.049
22,STOML2 (UniProt Q9UJZ1),0.984 ± 0.075
23,UniProt Q9UQ84 and related entries,0.963 ± 0.13
24,DRG1 (UniProt Q9Y295),1.01 ± 0.017
25,TPX2 (UniProt Q9ULW0),1.17 ± 0.064
26,UniProt Q9UJ83 and related entries,0.997 ± 0.083
27,UniProt Q9UGP4 and related entries,0.9406 ± 0.0089

# Some of the entries above in another layout.
row | Target | NP40-soluble protein abundance
11 | UniProt Q9P287 and related entries | 0.952 ± 0.028
12 | SEL1L (UniProt Q9UBV2) | 0.939 ± 0.019
13 | UniProt Q9UNS1 and related entries | 0.979 ± 0.041
14 | UniProt Q9UM21 | 0.991 ± 0.11
15 | UniProt Q9UGR2 and related entries | 1.03 ± 0.019
